Screen size: about 52,000 sequences; about 210 (0.4%) were called active.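 Rule for the calls: active = gene whose silencing raises cell survival under the drug, median off-target-corrected z-score across its silencing RNAs 2 or more; inactive = the rest.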 This is one part of the list.

The test in a line: Resistance to Poly (ADP-Ribose) Polymerase inhibitor: Gene Identification via Genome-wide siRNA Screen. Particulars: mouse BRCA2 R2336H ES cells, olaparib, CellTiter-Glo viability; hits give high values. The procedure, abridged: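 Mouse BRCA2 R2336H ES cells were reverse-transfected with siRNA (20 nM final), treated at 48 h with 500 nM olaparib, and read by CellTiter-Glo after 72 h. Scores: MAD-based z per siRNA, median per gene, seed off-target correction.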
In general terms: ATP-based viability assays read luminescence as a measure of living cells.
Regarding CCGAUGAUCAGAGAAACAGTT against Prkar2b, the z-score was inactive: -1.75.
As for CGCCCAUGAUGAAUCCUUUTT against Olfr1416, the figure is inactive: 1.19; as for “CCCUUGCCUCAAAGAUCUUTT against 1700018C11Rik”, inactive: 0.0885; as for CGAUCUUGACCAAAACAAUTT against Fbxo30, inactive: -0.421.
As for GGGAAAGAAAACAAAGGAATT against Cdgap, the figure is inactive: 0.236.
For GGAAGACGUAAUAAAGUUATT against BC026978, the z-score was inactive: 0.539.
As for “GGUCUUGGAGGAUCCCAAUTT against 1700025D03Rik”, the figure is inactive: 0.607.
With GCUACGAGCAGUUUUUAUUTT against Ptgs1 the figure was inactive: 0.753.
As for GCCACGGAAAAUAGGGAAGTT against Irf7, the figure is inactive: 0.648.
In the case of GCAAGUUGGCGUGAAGAUATT against Col9a1, the z-score was inactive: -0.00285.
“GGAGAUAAUAAUGAAGUCGTT against 1810029G24Rik”: the z-score was inactive: 0.247.
With GGAAUAUGUUUAGCAUCUGTT against AW556797, the z-score was inactive: 0.876.
As for CGUGGAAAAUGAUCAACACTT against LOC434320, the figure is inactive: -0.281.
As for CCCGAAAGACAUGUAUUCGTT against Mrps18b, the figure is inactive: 1.22; as for CGACCUUCAAGGCAAUAUUTT against Anapc2, inactive: -2.06.
As for GGUGAUGGCUGUUCCUUUCTT against Zdhhc2, the figure is inactive: -0.551; as for GGUUCUGAUAUACGUGUUUTT against Rraga, inactive: 0.309; as for GCUAUUCUGUCUACGUGUATT against Hist2h2bb, inactive: 0.841.
Regarding GCCUCAUUAUGAGUUGGCATT against Olfr1419, the z-score was inactive: -0.0432.
As for CCGCUUGAAUCUUAGUGAUTT against Hoxc12, the figure is inactive: -0.269; as for GGCCUUCAUCUUCAAGUACTT against Cmkor1, inactive: -0.0264.
As for “GGUUGCUAGAAAAAUGAAGTT against 4933421G18Rik”, the figure is inactive: 0.866.
With “GGAACCCAUCAGCUACAUGTT against 1700008E09Rik” the figure was inactive: -0.285.
For the sequence GCACUACCGCAUCAUGUAUTT against Csk, the z-score was inactive: 1.09.
On to CGUGCUAAACAUUGACACCTT against Stx1b1, for which the z-score was inactive: -0.664.
As for CCACCUGAAUCAUUACUCATT against Rdhs, the figure is inactive: -0.857.
As for “GGAGAAGACCAUAAAGAAGTT against E030034P13Rik”, the figure is inactive: 0.36.
With “GGCCAGUCAAUUCUUGCUUTT against E030018N11Rik”, the z-score is inactive: 0.43.
As for “GGGAUCAAAGAUCAGUUAATT against 2700059L22Rik”, the figure is inactive: 0.231; as for GCAGUUUGCACGAGAUCGATT against Myd116, inactive: 0.38; as for “GGUCACAAAGAAGAAUCACTT against 4632417D23”, inactive: 0.717.
As for GGAAACGUGGAACAUAAGATT against Gapds, the z-score is inactive: -0.726.
Regarding CCAAGUGACUUUAAGGAUGTT against Pcolce, the z-score is inactive: 0.886.
With “GCCAGAGACCCAAAUCAGATT against B630019A10Rik” the figure was inactive: 0.814.
With CCAUAAGAGGCUUACCAAATT against Ndrg3 the figure was inactive: -0.191; with GCACUCAUUUUUGCCCUGGTT against Gpr103, inactive: -0.541; with “AUCCAUUUUGUGCUAGGCATT against 5930434B04Rik”, inactive: 0.91.
With GGAAUAUCGGACUUUUUCATT against C79407, the z-score was inactive: -0.0191.
With GGCAAAUCAAGAGUAUUUUTT against C87436 the figure was inactive: 0.574.
As to GCCUAAUCCCUUAAUCUACTT against Oas1g, the z-score was inactive: -0.635.
For GGCAUCUUUCAGUUUAUAUTT against Spic, the z-score was inactive: 0.57.
As for GGAAUCUUUUAUAAACACCTT against Abcc12, the figure is inactive: 0.802; as for GCCCAUUUUUUUAGAUAUCTT against Rbl1, inactive: 1.14; as for GGUGAACCUGGAAGAACUATT against Manea, inactive: -0.0653.
With CCUCUGUGACCUUUCAUGATT against Dhrsx, the z-score is inactive: 0.255.
As for “GGGUCAUGUCUGAAUUAAATT against 3110001K24Rik”, the figure is inactive: -0.2; as for CCCACAACUGCAAAUUGUGTT against Olfr782, inactive: 0.0524.
With GGCUCCUGAUUGAACAAAATT against Plod1, the z-score is inactive: 0.091.
Consider GGUAUCUCAGUCACGAAGATT against Rora, for which the z-score is inactive: 1.15.
Regarding CGUGUAUUUUACAAAGAGUTT against LOC432589, the z-score was inactive: 0.195.
Take GGGAUGAACGAAAUCAGUCTT against Myo5a: the z-score was inactive: -1.26.
With GGUAUCAAGGUGAAGUUGATT against 1-Sep the figure was inactive: -0.0308; with GGCACAGAAAAAGAAAAUUTT against Usp3, inactive: -1.85.
As for GGACCAAGGAUCUUGACCUTT against Rax, the figure is inactive: 1.35; as for GCAUUCAAUCUGCAGAGGGTT against Olfr888, inactive: 0.325; as for CCACUUUUUUAGAUCCCUGTT against AA960436, inactive: -0.149.
With “GGUUCUGAGUAUUUAAAGCTT against C630002B14Rik” the figure was inactive: 0.728; with “GGAUACGAAAACGACUGCATT against 4930402E16Rik”, inactive: 1.31; with GGGAAUCCUAGACAUGCUGTT against Nphp4, inactive: -0.682.
Take UGCAAAAAACGGAACAAUCTT against Gzmd: the z-score is inactive: -0.434.
For GCGAGAACAGCAAUAGUUCTT against Spag4, the z-score was inactive: 1.22.
CCCAUCAAAAGAAUCCACATT against Snrp70: the z-score is inactive: -1.66.
GGCCAACACCUUUGAUGGATT against Abtb1: the z-score is inactive: 1.01.
As for GGAGUUUGUAAGGUCAUGUTT against Galt, the figure is inactive: 0.0602; as for GGGACACAUGGAGAUACUGTT against Ankrd2, inactive: -1.28.
With CCUGGAGAUUAGCUACGCCTT against LOC329416, the z-score was inactive: -0.649.

The values above are taken from PubChem BioAssay AID1347423 (Functional Genomics Laboratory (NCATS/FGL), 2020).
